Test results published in paper doi:10.1101/2022.03.21.485090.
Results are given in words; binding and its absence hold for the method and conditions named. Binding seen in cells or lysates may run through a third protein.

Biological target: HA-tagged rhoptry protein TGME49_202200 (Toxoplasma gondii)
Assay: co-IP

B1: Complement Component 1q Binding Protein (C1QBP), mouse (protein, UniProt O35658 71-278)
chain: LHTEGDKAFVEFLTDEIKEEKKIQKHKSLPKMSGDWELEVNGTEAKLLRKVAGEKITVTFNINNSIPPTFDGEEEPSQGQKAEEQEPERTSTPNFVVEVTKTDGKKTLVLDCHYPEDEIGHEDEAESDIFSIKEVSFQATGDSEWRDTNYTLNTDSLDWALYDHLMDFLADRGVDNTFADELVELSTALEHQEYITFLEDLKSFVKNQ
B1 was tested, and the binding was “no binding”.
